Reference: article PMC5290737, “Surface mediated cooperative interactions of drugs enhance mechanical forces for antibiotic action” (Scientific Reports, 2017)

Assays:
[1] = system: vancomycin-resistant receptor (VRR); test: Cantilever surface stress assay, antibiotic binding to surface-bound VRR; conditions: equation (2)
Source text: To probe different pathways of signal-transduction central to the efficacy of recognition mechanisms and therapeutic agents, we used cantilever force-based technology. Because of its nanometre strain sensitivity, this technology can directly measure the smallest changes in mechanical strain caused by specific antibiotic binding. The principles of force transduction and measurements are well established[18][19][20] and many studies focused on cantilever sensors have been published. Unlike conventional methods such as 1H–NMR spectroscopy, enzyme-linked immunosorbent assays (ELISA)[29] or surface plasmon resonance (SPR)[30] which measure optical signatures of chemical binding, cantilever technology has the capacity to resolve forces at the level of individual hydrogen bonds, making it uniquely suited to provide important insight into force transduction mechanisms, such as cell wall strain in response to antibiotic binding. Moreover, in contrast to direct current or low-frequency signals, which cannot probe beyond electrical double layers formed by screening salts, mechanical signaling is sensitive to ligands even when they are located at distance of ~1 nm or more from the sensor surface (Fig. 1d). Measurements were performed using cantilevers functionalized with self-assembled monolayers (SAM) of VSR, VRR or reference polyethylene glycol (PEG) (see methods & materials, Supplementary Information). The specificity of mechanical signaling was achieved by performing measurements in differential mode, where the bending response of the reference PEG-coated cantilevers, (known to reduce nonspecific drug adsorption[8][14][34]) was subtracted from VSR- and VRR-coated cantilever signals (see cantilever measurement procedure, method section). […]
(§1) Here, Ksurf is raised to the power n to ensure that it maintains the dimension of concentration as n varies. […] The calculated Ksurf for Ori binding to VSR is 40 ± 10 nM, which is 25 times stronger than for Van where Ksurf is 1.0 ± 0.3 μM. […]

[2] = system: vancomycin-susceptible receptor (VSR); test: Cantilever surface stress assay, antibiotic binding to surface-bound VSR; conditions: equation (2)
Source text: To probe different pathways of signal-transduction central to the efficacy of recognition mechanisms and therapeutic agents, we used cantilever force-based technology. Because of its nanometre strain sensitivity, this technology can directly measure the smallest changes in mechanical strain caused by specific antibiotic binding. The principles of force transduction and measurements are well established[18][19][20] and many studies focused on cantilever sensors have been published. Unlike conventional methods such as 1H–NMR spectroscopy, enzyme-linked immunosorbent assays (ELISA)[29] or surface plasmon resonance (SPR)[30] which measure optical signatures of chemical binding, cantilever technology has the capacity to resolve forces at the level of individual hydrogen bonds, making it uniquely suited to provide important insight into force transduction mechanisms, such as cell wall strain in response to antibiotic binding. […]
as §1

| Compound | Hill coeff. (n) [1] | Hill coeff. (n) [2] |
| --- | --- | --- |
| ristomycin | 0.7 ± 0.2 |  |
| CN[C@H](CC(C)C)C(=O)N[C@H]1C(=O)N[C@@H](CC(N)=O)C(=O)N[C@H]2C(=O)N[C@H]3C(=O)N[C@H](C(=O)N[C@H](C(=O)O)c4cc(O)cc(O)c4-c4cc3ccc4O)[C@H](O[C@H]3C[C@](C)(N)[C@@H](O)[C@H](C)O3)c3ccc(c(Cl)c3)Oc3cc2cc(c3O[C@@H]2O[C@H](CO)[C@@H](O)[C@H](O)[C@H]2O[C@H]2C[C@](C)(NCc3ccc(-c4ccc(Cl)cc4)cc3)[C@@H](O)[C@H](C)O2)Oc2ccc(cc2Cl)[C@H]1O [Ori, oritavancin] | 2.7 ± 0.6 | 1.8 ± 0.4 |
| CN[C@H](CC(C)C)C(=O)N[C@H]1C(=O)N[C@@H](CC(N)=O)C(=O)N[C@H]2C(=O)N[C@H]3C(=O)N[C@H](C(=O)N[C@H](C(=O)O)c4cc(O)cc(O)c4-c4cc3ccc4O)[C@H](O)c3ccc(c(Cl)c3)Oc3cc2cc(c3O[C@@H]2O[C@H](CO)[C@@H](O)[C@H](O)[C@H]2O[C@H]2C[C@](C)(N)[C@H](O)[C@H](C)O2)Oc2ccc(cc2Cl)[C@H]1O [Van, vancomycin] | 1.2 ± 0.2 | 1.0 ± 0.2 |
